These results are taken from patent publication US10633353B2, “Polymerizable compound, composition, polymer, optically anisotropic body, liquid crystal display element, and organic EL display” (DIC Corporation, priority 2014, dated 2020).

Structures are written as SMILES.

The series can be described thus: Optical property of the optical film (retardation, Re(450)/Re(550)). The following applies: Re(450)/Re(550) of the optical film, RET-100.

Consider `C=CC(=O)OCCCCCCOc1ccc(C(=O)OCCc2ccc(OC(=O)c3ccc(OCCCCCCOC(=O)C=C)cc3)c(/C=N/Nc3nc4ccccc4s3)c2)cc1` [1-c-1], for which the Optical property result is listed as “A (Re(450)/Re(550)≤0.85)”.
In the case of `C=CC(=O)OCCCOc1ccc(C(=O)OCCc2ccc(OC(=O)c3ccc(OCCCOC(=O)C=C)cc3)c(/C=N/Nc3nc4ccccc4s3)c2)cc1` [1-c-2], the Optical property result was “A (Re(450)/Re(550)≤0.85)”.
For the compound `C=CC(=O)OCCCCOc1ccc(C(=O)OCCc2ccc(OC(=O)c3ccc(OCCCCOC(=O)C=C)cc3)c(/C=N/Nc3nc4ccccc4s3)c2)cc1` [1-c-3], the Optical property entry is given as “A (Re(450)/Re(550)≤0.85)”.
Consider `C=CC(=O)OCCCCCOc1ccc(C(=O)OCCc2ccc(OC(=O)c3ccc(OCCCCCOC(=O)C=C)cc3)c(/C=N/Nc3nc4ccccc4s3)c2)cc1` [1-c-4], for which the Optical property result is “A (Re(450)/Re(550)≤0.85)”.
For the compound `C=C(C)C(=O)OCCCOc1ccc(C(=O)OCCc2ccc(OC(=O)c3ccc(OCCCOC(=O)C(=C)C)cc3)c(/C=N/Nc3nc4ccccc4s3)c2)cc1` [1-c-5], the Optical property entry is “A (Re(450)/Re(550)≤0.85)”.
Regarding `C=C(C)C(=O)OCCCCOc1ccc(C(=O)OCCc2ccc(OC(=O)c3ccc(OCCCCOC(=O)C(=C)C)cc3)c(/C=N/Nc3nc4ccccc4s3)c2)cc1` [1-c-6], the Optical property entry is recorded as “A (Re(450)/Re(550)≤0.85)”.
`C=C(C)C(=O)OCCCCCOc1ccc(C(=O)OCCc2ccc(OC(=O)c3ccc(OCCCCCOC(=O)C(=C)C)cc3)c(/C=N/Nc3nc4ccccc4s3)c2)cc1` [1-c-7]: the Optical property entry is given as “A (Re(450)/Re(550)≤0.85)”.
In the case of `C=C(C)C(=O)OCCCCCCOc1ccc(C(=O)OCCc2ccc(OC(=O)c3ccc(OCCCCCCOC(=O)C(=C)C)cc3)c(/C=N/Nc3nc4ccccc4s3)c2)cc1` [1-c-8] it was “A (Re(450)/Re(550)≤0.85)”.
In the case of `C=CC(=O)OCCCOc1ccc(C(=O)OCCc2ccc(CCOC(=O)c3ccc(OCCCOC(=O)C=C)cc3)c(/C=N/Nc3nc4ccccc4s3)c2)cc1` [1-c-9], the Optical property entry is on record as “A (Re(450)/Re(550)≤0.85)”.
In the case of `C=CC(=O)OCCCCOc1ccc(C(=O)OCCc2ccc(CCOC(=O)c3ccc(OCCCCOC(=O)C=C)cc3)c(/C=N/Nc3nc4ccccc4s3)c2)cc1` [1-c-10] it was “A (Re(450)/Re(550)≤0.85)”; in that of `C=CC(=O)OCCCCCOc1ccc(C(=O)OCCc2ccc(CCOC(=O)c3ccc(OCCCCCOC(=O)C=C)cc3)c(/C=N/Nc3nc4ccccc4s3)c2)cc1` [1-c-11], “A (Re(450)/Re(550)≤0.85)”.
For `C=CC(=O)OCCCCCCOc1ccc(C(=O)OCCc2ccc(CCOC(=O)c3ccc(OCCCCCCOC(=O)C=C)cc3)c(/C=N/Nc3nc4ccccc4s3)c2)cc1` [1-c-12], the Optical property result is on record as “A (Re(450)/Re(550)≤0.85)”.
Consider `C=CC(=O)OCCCOc1ccc(OC(=O)C2CCC(C(=O)OCCc3ccc(OC(=O)C4CCC(C(=O)Oc5ccc(OCCCOC(=O)C=C)cc5)CC4)c(C=NNc4nc5ccccc5s4)c3)CC2)cc1` (stereo not drawn) [1-c-13], for which the Optical property entry is reported as “A (Re(450)/Re(550)≤0.85)”.
`C=CC(=O)OCCCCOc1ccc(OC(=O)C2CCC(C(=O)OCCc3ccc(OC(=O)C4CCC(C(=O)Oc5ccc(OCCCCOC(=O)C=C)cc5)CC4)c(C=NNc4nc5ccccc5s4)c3)CC2)cc1` (stereo not drawn) [1-c-14]: the Optical property result is on record as “A (Re(450)/Re(550)≤0.85)”.
In the case of `C=CC(=O)OCCCCCOc1ccc(OC(=O)C2CCC(C(=O)OCCc3ccc(OC(=O)C4CCC(C(=O)Oc5ccc(OCCCCCOC(=O)C=C)cc5)CC4)c(C=NNc4nc5ccccc5s4)c3)CC2)cc1` (stereo not drawn) [1-c-15], the Optical property entry is reported as “A (Re(450)/Re(550)≤0.85)”.
As to `C=CC(=O)OCCCOc1ccc(C(=O)OCCc2ccc(OC(=O)c3ccc(OCCCOC(=O)C=C)cc3)c(/C=N/Nc3nc4cc([N+](=O)[O-])ccc4s3)c2)cc1` [1-c-23], the Optical property entry is recorded as “A (Re(450)/Re(550)≤0.85)”.
In the case of `C=CC(=O)OCCCOc1ccc(C(=O)OCCc2ccc(OC(=O)c3ccc(OCCCOC(=O)C=C)cc3)c(/C=N/Nc3nc4cc(Cl)ccc4s3)c2)cc1` [1-c-24], the Optical property result was “A (Re(450)/Re(550)≤0.85)”.
Turning to `C=CC(=O)OCCCOc1ccc(C(=O)OCCc2ccc(OC(=O)c3ccc(OCCCOC(=O)C=C)cc3)c(/C=N/Nc3nc4cc(C#N)ccc4s3)c2)cc1` [1-c-25], the Optical property entry is “A (Re(450)/Re(550)≤0.85)”.
Turning to `C=CC(=O)OCCCOc1ccc(C(=O)OCCc2ccc(OC(=O)c3ccc(OCCCOC(=O)C=C)cc3)c(/C=N/Nc3nc4cc(CCC)ccc4s3)c2)cc1` [1-c-26], the Optical property result is recorded as “A (Re(450)/Re(550)≤0.85)”.
In the case of `C=CC(=O)OCCCCOc1ccc(C(=O)OCCc2ccc(OC(=O)c3ccc(OCCCCOC(=O)CC)cc3)c(/C=N/Nc3cc4ccccc4[nH]3)c2)cc1` [1-c-28], the Optical property entry is on record as “A (Re(450)/Re(550)≤0.85)”.
Under `C=CC(=O)OCCCCCOc1ccc(C(=O)OCCc2ccc(OC(=O)c3ccc(OCCCCCOC(=O)C=C)cc3)c(/C=N/Nc3nc4cc(O)c([N+](=O)[O-])cc4[nH]3)c2)cc1` [1-c-29] stands “A (Re(450)/Re(550)≤0.85)”; under `C=CC(=O)OCCCCCCOc1ccc(C(=O)OCCc2ccc(OC(=O)c3ccc(OCCCCCCOC(=O)C=C)cc3)c(/C=N/Nc3nc4cc([N+](=O)[O-])ccc4s3)c2)cc1` [1-c-30], “A (Re(450)/Re(550)≤0.85)”; under `C=CC(=O)OCCCCCCOc1ccc(C(=O)OCCc2ccc(OC(=O)c3ccc(OCCCCCCOC(=O)C=C)cc3)c(/C=N/Nc3ccc(C#Cc4ccccc4)cc3)c2)cc1` [1-c-31], “A (Re(450)/Re(550)≤0.85)”.
With `C=CC(=O)OCCCCCCOc1ccc(C(=O)OCCc2ccc(OC(=O)c3ccc(OCCCCCCOC(=O)C=C)cc3)c(/C=N/Nc3ccc4ccccc4c3)c2)cc1` [1-c-32], the Optical property result is on record as “A (Re(450)/Re(550)≤0.85)”.
For the compound `C=CC(=O)OCCCCCCOc1ccc(C(=O)OCCc2ccc(OC(=O)c3ccc(OCCCCCCOC(=O)C=C)cc3)c(/C=N/Nc3nc4ccc5ccccc5c4s3)c2)cc1` [1-c-33], the Optical property entry was “A (Re(450)/Re(550)≤0.85)”.
In the case of `C=CC(=O)OCCCCCCOc1ccc(C(=O)OCCc2ccc(OC(=O)c3ccc(OCCCCCCOC(=O)C=C)cc3)c(/C=N/Nc3nc(-c4ccc5ccccc5c4)cs3)c2)cc1` [1-c-34], the Optical property entry is on record as “A (Re(450)/Re(550)≤0.85)”.
In the case of `C=CC(=O)OCCCCOc1ccc(C(=O)OCCc2ccc(OC(=O)c3ccc(OCCCCOC(=O)C=C)cc3)c(/C=N/N(CCCCCC)c3nc4ccc5ccccc5c4s3)c2)cc1` [1-c-40] it was “A (Re(450)/Re(550)≤0.85)”; in that of `C=CC(=O)OCCCOc1ccc(C(=O)OCCc2ccc(CCOC(=O)c3ccc(OCCCOC(=O)C=C)cc3)c(/C=N/N(C(=O)C=C)c3nc(-c4ccc5ccccc5c4)cs3)c2)cc1` [1-c-41], “A (Re(450)/Re(550)≤0.85)”.
As to `C=CC(=O)OCCCCCCOc1ccc(OC(=O)C2CCC(C(=O)OCCc3ccc(OC(=O)C4CCC(C(=O)Oc5ccc(OCCCCCCOC(=O)C=C)cc5)CC4)c(/C=N/Nc4cccc5ccccc45)c3)CC2)cc1` (stereo not drawn) [1-c-42], the Optical property result was “A (Re(450)/Re(550)≤0.85)”.
As for `C=CC(=O)OCCCCCCOc1ccc(/C=C/C(=O)Oc2ccc(OC(=O)/C=C/c3ccc(OCCCCCCOC(=O)C=C)cc3)c(/C=N/Nc3nc4ccccc4s3)c2)cc1` [1-c-43], the Optical property entry is “A (Re(450)/Re(550)≤0.85)”.
In the case of `C=CC(=O)OCCCOc1ccc(/C=C/C(=O)Oc2ccc(OC(=O)/C=C/c3ccc(OCCCOC(=O)C=C)cc3)c(/C=N/Nc3nc4ccccc4s3)c2)cc1` [1-c-44], the Optical property result was “A (Re(450)/Re(550)≤0.85)”.
Regarding `C=CC(=O)OCCCCOc1ccc(/C=C/C(=O)Oc2ccc(OC(=O)/C=C/c3ccc(OCCCCOC(=O)C=C)cc3)c(/C=N/Nc3nc4ccccc4s3)c2)cc1` [1-c-45], the Optical property result is on record as “A (Re(450)/Re(550)≤0.85)”.
`C=CC(=O)OCCCOc1ccc(/C=C/C(=O)Oc2ccc(OC(=O)/C=C/c3ccc(OCCCOC(=O)C=C)c(OC)c3)c(/C=N/Nc3nc4ccccc4s3)c2)cc1OC` [1-c-46]: the Optical property result was “A (Re(450)/Re(550)≤0.85)”.
For `C=CC(=O)OCCCOc1ccc(/C=C/C(=O)Oc2ccc(OC(=O)/C=C/c3ccc(OCCCOC(=O)C=C)c(Cl)c3)c(/C=N/Nc3nc4ccccc4s3)c2)cc1Cl` [1-c-47], the Optical property entry was “A (Re(450)/Re(550)≤0.85)”.
Turning to `C=C(C)C(=O)OCCCOc1ccc(/C=C/C(=O)Oc2ccc(OC(=O)/C=C/c3ccc(OCCCOC(=O)C(=C)C)cc3)c(/C=N/Nc3nc4ccccc4s3)c2)cc1` [1-c-48], the Optical property entry is “A (Re(450)/Re(550)≤0.85)”.
As to `C=CC(=O)OCCCOc1ccc(CCC(=O)Oc2ccc(OC(=O)CCc3ccc(OCCCOC(=O)C=C)cc3)c(/C=N/Nc3nc4ccccc4s3)c2)cc1` [1-c-49], the Optical property result is “A (Re(450)/Re(550)≤0.85)”.
As for `C=CC(=O)OCCCCOc1ccc(CCC(=O)Oc2ccc(OC(=O)CCc3ccc(OCCCCOC(=O)C=C)cc3)c(/C=N/Nc3nc4ccccc4s3)c2)cc1` [1-c-50], the Optical property result was “A (Re(450)/Re(550)≤0.85)”.
Consider `C=CC(=O)OCCCCCCOc1ccc(CCC(=O)Oc2ccc(OC(=O)CCc3ccc(OCCCCCCOC(=O)C=C)cc3)c(/C=N/Nc3nc4ccccc4s3)c2)cc1` [1-c-51], for which the Optical property entry was “A (Re(450)/Re(550)≤0.85)”.
With `C=CC(=O)OCCCOc1ccc(CCC(=O)Oc2ccc(OC(=O)CCc3ccc(OCCCOC(=O)C=C)c(OC)c3)c(/C=N/Nc3nc4ccccc4s3)c2)cc1OC` [1-c-52], the Optical property result is “A (Re(450)/Re(550)≤0.85)”.
For `C=CC(=O)OCCCCOc1ccc(C#Cc2ccc(C#Cc3ccc(OCCCCOC(=O)C=C)cc3)c(/C=N/Nc3nc4ccccc4s3)c2)cc1` [1-c-66], the Optical property result is recorded as “A (Re(450)/Re(550)≤0.85)”.
With `C=CC(=O)OCCCOc1ccc(C#Cc2ccc(C#Cc3ccc(OCCCOC(=O)C=C)cc3)c(/C=N/Nc3nc4ccccc4s3)c2)cc1` [1-c-67], the Optical property entry was “A (Re(450)/Re(550)≤0.85)”.
Take `C=CC(=O)OCCCCCCOc1ccc(C#Cc2ccc(C#Cc3ccc(OCCCCCCOC(=O)C=C)cc3)c(/C=N/Nc3nc4ccccc4s3)c2)cc1` [1-c-68]: the Optical property entry is listed as “A (Re(450)/Re(550)≤0.85)”.
Under `C=CC(=O)OCCCCCCOc1ccc(OCCOc2ccc(OCCOc3ccc(OCCCCCCOC(=O)C=C)cc3)c(/C=N/Nc3nc4ccccc4s3)c2)cc1` [1-c-80] stands “A (Re(450)/Re(550)≤0.85)”.
In the case of `C=CC(=O)Oc1ccc(C(=O)OCCc2ccc(OC(=O)c3ccc(OC(=O)C=C)cc3)c(/C=N/Nc3nc4ccccc4s3)c2)cc1` [1-cg-36] it was “A (Re(450)/Re(550)≤0.85)”.
`C=CC(=O)Oc1ccc(C(=O)OCCc2ccc(CCOC(=O)c3ccc(OC(=O)C=C)cc3)c(/C=N/Nc3nc4ccccc4s3)c2)cc1` [1-cg-37]: the Optical property entry is reported as “A (Re(450)/Re(550)≤0.85)”.
